Screening data, single-dose tests

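Whole-parasite assay of Trypanosoma brucei over 72 hours; the read-out is not stated. Tested at 30 µM. Higher reads as stronger inhibition (inferred: compounds with an IC50 in retests scored well above the rest). Values scatter widely below zero; nearly all retest evidence comes from the higher of the two concentrations used. Size under these conditions: about 64,000 compounds, about 940 of them at 50% or above in at least one test.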

The filed quantity is “Percent Effect” (%). How 0% and 100% were set is not recorded. Most values in the screen are low, and negative values occur. Compounds were drawn at random from those tested, without regard to their results.

Compound,effect
COC(=O)c1ccc(CNCc2cn(C)nc2C)cc1,-24.34
CCCC(=O)NC(Cc1ccc(C)cc1)c1ccccn1 (stereo not shown),-30.99
OCC1CCCN1c1cc(NCc2cccc3cccnc23)ncn1 (stereo not shown),5.774
[H][C@@]12CS(=O)(=O)C[C@]1([H])N(C(=O)c1cccc(C)n1)CCN2CCC,-39.41
CCNC(=O)C(C)(C)NC(=O)NCc1cccc(Br)c1,-40.34
CCS(=O)(=O)CCSc1ccc(Cl)cc1,5.772
COc1ccccc1[C@@H]1CN(Cc2csc(C(C)=O)c2)C[C@H]1C(=O)O,-20.29
COc1cccc(C)c1C(=O)N1C[C@@H](CN(C)C)[C@@H](CO)C1,27.59
CCc1csc(C2CCCN(C(=O)c3ccc(OC)nc3)C2)n1 (stereo not shown),21.74
[H][C@]12CC[C@]([H])(CN(C(=O)C3CCC3)C1)N(C(=O)c1cccc(N(C)C)c1)C2,-23.29
Cn1nc(C(=O)NC2CCCCC2)cc1NC(=O)C1CC1,15.59
O=C(CC1CCCO1)N1CCCN(c2cccnn2)CC1 (stereo not shown),-1.88
CC(C)C1CN(C(=O)c2ccn(C)c(=O)c2)c2ccccc2N1 (stereo not shown),-5.935
CN(Cc1nccn1C)c1ccc(-c2nccn2C)nn1,-60.42
CC(=O)N1CCCN(c2nccc(-c3c(C)nn(C)c3C)n2)CC1,-5.88
Cc1nc(CN2CCC23CCN(Cc2ccco2)CC3)cs1,-31.22
O=C(c1cc(=O)[nH]c(=O)[nH]1)N1CCCC(CO)(CC2CC2)C1 (stereo not shown),-20.15
Cc1c(F)cc(C(=O)O)cc1S(=O)(=O)Nc1ccccc1,-0.7138
O=C(O)C1(Cc2cccc(-c3ccc(F)c(F)c3)c2)CCOCC1,17.5
CS(=O)(=O)N1CCOCC2(CN(Cc3nccs3)CCO2)C1.O=C(O)C(F)(F)F (stereo not shown),-73.63
C[C@H]1CN(C)C[C@@]12COCCN(C(=O)Cc1ccccc1)C2.O=C(O)C(F)(F)F,17.62
COc1ccc(-c2nnsc2C(=O)N2CCN(C(C)=O)CC2)cc1,-10.35
COc1cc(N2CCC3(CC2)C(c2ccncc2)CC(=O)N3C)ncn1 (stereo not shown),-22.9
CC(C)(C)c1noc(CN2CCN(C(=O)c3cccs3)CC2)n1,15.47
[H][C@]12CC[C@]([H])(CC(=O)NC1)N2C(=O)Cc1ccsc1,-6.652
CNc1ncccc1C(=O)N1CCCC2(C1)C(=O)N(C)c1ccccc12 (stereo not shown),6.834
O=C(c1coc(COc2cccc3cnccc23)n1)N1CCCCCC1,-73.19
Cc1cccc(CN2CCc3ncnc(NC4CCC4)c3CC2)n1.O=C(O)C(F)(F)F.O=C(O)C(F)(F)F,-15.74
Cc1nc(CN2CCC(c3nc4ccccc4n3C)CC2)co1,-25.25
Cn1cccc1CNCC1CCCn2cc(C(C)(C)C)nc21 (stereo not shown),99.88
CCOCCCC(=O)NCc1ccc(N2CCCCC2)cc1,-7.514
CN(C)[C@@H]1CCN(c2ncc(F)cn2)[C@H]1Cc1ccccc1.O=C(O)C(F)(F)F.O=C(O)C(F)(F)F,27.1
O=C(c1cccc(CO)n1)N1CCOC(c2ccc(Cl)c(Cl)c2)C1 (stereo not shown),-3.243
CC(=O)N1CCn2c(nnc2C2CCCCN2C(C)=O)C1 (stereo not shown),-4.709
CN1C(=O)CC(C(=O)O)C12CCN(Cc1ccc(F)c(Cl)c1)CC2 (stereo not shown),-54.4
CCc1ccc(-n2nnc(C(=O)O)c2-c2ccncc2)cc1,-31.87
CSCC(=O)N[C@H]1CC[C@H](Nc2nccc(-c3ccncc3)n2)C1,-28.3
O=C(O)C(F)(F)F.O=C(O)C(F)(F)F.[H][C@@]12C[C@@H](Oc3ccc(C)cc3)CN1CCN(C(=O)Cc1ccccn1)C2,-411
COc1ccc(CC(=O)NC(CC(=O)O)c2ccc(F)cc2)cc1OC (stereo not shown),-8.048
CC(C)S(=O)(=O)C(C)C(=O)Nc1ccc2oc(C3CC3)nc2c1 (stereo not shown),-43.72
COc1c(CNCc2ccc(N(C)C)nc2)c(C)nn1C,-16.38
CCC(C)NC(=O)c1nn(C)c(NC(=O)c2ccccc2OC)c1F (stereo not shown),-5.36
CN1C(=O)C(c2ccccc2)CC12CCN(CCN)CC2 (stereo not shown),-1.107
O=C(CN1C(=O)c2ccccc2CS1(=O)=O)c1ccc(Cl)cc1,-112.6
CS(=O)(=O)c1cnc(CC2CC2)nc1C1CCCNC1 (stereo not shown),-56.32
CCCN1CC2(CCN(C)CC2)CC1C(=O)NCCn1nc(C)nc1C (stereo not shown),-18.95
Cc1cccc(C)c1NC(=O)CNC(C)Cc1ccsc1 (stereo not shown),-47.98
CCc1nnsc1C(=O)N1CCCC(c2nc3ccccc3[nH]2)C1 (stereo not shown),-5.493
O=C(N1CCCC1)N1CCn2c(Cn3cccn3)cnc2C1,-15.07
[H][C@]12CCC[C@@]1(COCc1cccc(C)n1)CN(C(=O)Cc1ccco1)C2,-40.7
CC(=O)NCCNC(=O)c1sc(-c2ccc(Cl)s2)nc1C,32.21
CN1CC=C(c2noc(CCC(=O)N3CCOCC3)n2)CC1,-20.92
CNCc1cn(C2CCN(CCC(C)c3ccccc3)CC2)nn1 (stereo not shown),26.49
CC(C)c1noc(C(C)N2CCN(CCc3ccncc3)CC2)n1 (stereo not shown),-13.69
COc1cccc(-c2n[nH]cc2-c2nc(CN3CCCC3)no2)c1,-5.904
CCc1nnsc1C(=O)NC(CC(C)C)C(=O)OC (stereo not shown),-10.65
COCC(=O)N[C@@H]1CN(Cc2ccc3c(c2)OCCO3)C[C@H]1O,-8.579
O=C(Cc1ccc2c(c1)OCO2)N1CCN(c2cnccn2)CC1,10.15
CCc1cc(C(=O)N2CCC3(CCCN(CC4CC4)C3=O)C2)cs1 (stereo not shown),-122.3
Cc1nn(C)cc1S(=O)(=O)NC1(CN2CCOCC2)CCCCC1,-11.57
CCCc1ncc(CN(C)C2CCCN(CCc3ccccc3)C2)cn1 (stereo not shown),-9.923
Cc1cc(C)c2c(c1)C(NC(=O)CSCC(N)=O)CCO2 (stereo not shown),-38.52
Cc1cnccc1CN1CC[C@H](Oc2cccc(F)c2)[C@@](C)(O)C1,6.048
COC(=O)N1CC(C)=C(C)CN1C(=O)Nc1cccc(Cl)c1,-4.218
O=C(O)C(F)(F)F.O=C(O)C(F)(F)F.O=C(O)C(F)(F)F.[H][C@@]12COC[C@@H](N3CCN(C)CC3)[C@]1([H])CN(Cc1ccc(OC)cc1)C2,7.882
Cn1cc(C(=O)NCc2cn3c(n2)CN(CC2CCCC2)CC3)cn1.O=C(O)C(F)(F)F.O=C(O)C(F)(F)F,-33.28
O=C(Cn1cc(I)cn1)N1CCCC1,8.053
COCCN(c1cc(C)nc2nc(C(F)(F)F)nn12)C1CCCC1,-69.79
CCC(=O)N1CCCC1c1nccnc1Nc1ncccn1 (stereo not shown),5.527
CC(C)N(C)Cc1cncc2c1CCN(Cc1ccoc1)C2.Cl.Cl.Cl,-67.6
CC(=O)N1CCC(c2ccnc(Nc3ccc(C)cn3)n2)C1 (stereo not shown),-4.26
Cc1ccccc1CC(=O)NCc1cnc(CC2CCN(C)CC2)cn1,6.655
O=C(O)C(F)(F)F.[H][C@@]12CCN(CC(C)C)[C@@]1([H])CCN2C(=O)N(C)C,-25.9
N#Cc1cn[nH]c1NCc1cc(I)cc(I)c1O,-25.48
CC(=O)NC(C)C(=O)NCc1ccc(N2CCNC(=O)C2)cc1 (stereo not shown),-4.755
COC(=O)CCN(CC1CCOC1)C1CC1 (stereo not shown),12.37
CC(C)c1nc(CC(=O)Nc2nc(CN3CCCCCC3)cs2)cs1,-42.79
CSc1ccc(NC(=O)Cc2cccc(O)c2)nc1,-79.74
CCc1nccc(CN2CCC(CNC(=O)Nc3ccccc3)C2)n1 (stereo not shown),-27.18
CC(C)c1cc(N2CCC[C@H](N)C2)n2nccc2n1,-37.71
Cc1cc(C)nc(N2CCCC2c2[nH]ncc2C(=O)N(C)C)n1 (stereo not shown),-7.285
O=C(O)C(F)(F)F.O=C(c1ccccn1)N1CCC2(CCCN(c3nncs3)C2)C1 (stereo not shown),-23.24
COc1cc2c(cc1C(=O)N1CCCCC1c1ccccn1)CCC2 (stereo not shown),1.494
CCC(CN1CCCC1)NC(=O)Cc1c(C)[nH]c2cc(C)cc(C)c12 (stereo not shown),-10.66
Cc1cc(CN2CCC(CNC(=O)c3nccc4ccccc34)C2)[nH]n1 (stereo not shown),-13.73

Source: ChEMBL document CHEMBL3988442, “University of Dundee, Small-Polar-MMV Screening Library” (2021).